Measurements published in patent publication US7994094B2, “N-pyridylpiperidine compound, method for producing the same, and pest control agent” (Otsuka Agritechno Co., Ltd., priority 2006, dated 2011).
Some results were stated once for a whole list of compounds, not compound by compound. At least one structure is not confirmed: it was looked up by name or label, or the drawing left a doubt.

System: Two-spotted spider mites (eggs)
Test: Ovicidal test on two-spotted spider mites (Test Example 2)
Type: in vivo, Tetranychus urticae
Settings: 500 ppm sprayed on kidney bean leaf; six days after the spraying
Method: A kidney bean leaf (about 3.5×4.5 cm) was placed on the sufficiently soaked non-woven fabric. Female adult two-spotted spider mites (about 5 mites) were released on the leaf, and the leaf was placed in a thermostatic chamber (25±2° C., 16L8D). […] The ovicidal rate of the two-spotted spider mites was determined six days after the spraying.

| Compound | ovicidal rate of the two-spotted spider mites |
| --- | --- |
| CC(C)(C)n1nc(C(F)(F)F)cc1OC1CCN(c2ccc(C(F)(F)F)cn2)CC1 [1a-26] | at least 50% |
| CCCCn1nc(C)cc1OC1CCN(c2ccc(C(F)(F)F)cn2)CC1 [1a-2] | at least 50% |
| CCCCn1nc(C(F)(F)F)c(C)c1OC1CCN(c2ccc(C(F)(F)F)cn2)CC1 [1a-221] | at least 50% |
| CCCCn1nc(C(F)(F)F)c(Br)c1OC1CCN(c2ccc(C(F)(F)F)cn2)CC1 [1a-81] | at least 50% |
| CCCCn1nc(C(C)(C)C)cc1OC1CCN(c2ccc(C(F)(F)F)cn2)CC1 [1a-126] | at least 50% |
